# Measurements: patent publication EP1813636A1, “Polyamine analogs that activate antizyme frameshifting” (MediQuest Therapeutics, Inc., priority 2004, dated 2007)
# At least one compound was matched to its structure with a doubt left.
# Columns and labels:
# Type in all cases: cell-based
# antizyme frameshifting = assay: dual luciferase reporter assay for antizyme frameshifting in HEK-293 cells; conditions: 25 µM, Fig 2
# Method: Frameshifting can be detected using a dual luciferase reporter system that measures the efficiency of antizyme translational frameshifting (Grentzmann, G. et. al., RNA 4:479-486 (1998); Howard, M. et. al., Genes to Cells 6:931-941 (2001)). Frameshifting efficiency is determined by comparing the ratio of firefly luciferase to renilla luciferase activity in cells transfected in parallel using a control vector containing a constitutive […] (AZ-IF) that measures the in-frame translation efficiency and a vector containing the inducible 0 to +1 frameshift (AZ1) construct. […] Using a 96-well format, this assay system gives a quantitative measure of the efficiency of the polyamines, polyamine analogs and other compounds to induce frameshifting in a cell-based bioassay. […]
# Figure 1 is a tabular representation of a large number of polyamines A-S (25 µM) that were tested for their ability to induce antizyme frameshifting using the dual luciferase reporter assay. […] The % RF was calculated as follows. The background percent frameshifting activity determined from the 2.5 mM DFMO negative control was subtracted from the percent frameshifting activity for all compounds including the spermidine control. […] The compounds were also evaluated for their ability to rescue cells from DFMO-induced growth inhibition by determining their rescue coefficient. […]
# HEK-293 cells [1] = assay: intracellular polyamine levels (HPLC) and cell growth after 6-day incubation; conditions: 6 days
# Method: Figure 6 is a graph showing the effect of a 6-day incubation of compound A on HEK-293 cellular polyamine levels and cell growth. All flasks received 1 mM aminoguanidine. Cells were washed, counted, lysed in perchloric acid, dansylated and polyamine levels determined by HPLC. Each value represents the average of triplicate values with the error bars representing standard deviation. Figure 7 illustrates the effect of extracellular compound A on the intracellular concentration of compound A in HEK-293 cells as determined by HPLC. Cells were prepared as in Figure 6. Peak area was normalized by dividing the peak area of the compound divided by the peak area of the internal standard, diaminoheptane. Values represent at least triplicate measurements with the error bars representing standard deviation.
# Compound A is further evaluated to determine if it depletes intracellular polyamine levels in HEK-293 cells in a dose-dependent fashion (Fig. 6). […] After overnight incubation at 37°C in an atmosphere of 5% CO2, compound A is added along with 1 mM aminoguanidine. The flasks are then incubated for 6 days at 37°C in an atmosphere of 5% CO2. The cells are harvested by washing twice with ice-cold 1X PBS, trypsinized, counted, and lysed in 0.4 N perchloric acid. Diaminoheptane is used in all dansylation reactions as an internal standard. […]
# HEK-293 cells [2] = assay: rescue from DFMO-induced growth inhibition (6 days, MTS/PMS dye assay); conditions: 25 µM compound, 2.5 mM DFMO
compound,measurement,setting,value
NCCCNCc1ccc(CN)cc1 [Compound A],potency in inducing antizyme frameshifting compared with agmatine,antizyme frameshifting,more potent than agmatine
same,intracellular spermidine level,HEK-293 cells [1]; 100 µM compound A,non-detectable
same,intracellular putrescine level,HEK-293 cells [1]; lowest concentration of compound A tested,non- detectable
same,ability to rescue cells from DFMO-induced growth inhibition,HEK-293 cells [2],neither compound A nor B significantly rescue cells
